PMC7606452
These are yes or no findings as the source states them, for the method shown. Binding seen in cells or lysates may run through a third protein. Some entries that bind do so weakly or less than the wild type.

Chains of the proteins cited; added tags and fusions are not shown. Lines headed by an entry give the natural chain unless they say otherwise; changes in a name come on top. A line that says so, or that is headed by a name, gives the form on record, which may keep a tag or linker.
UniProt P0DMV8: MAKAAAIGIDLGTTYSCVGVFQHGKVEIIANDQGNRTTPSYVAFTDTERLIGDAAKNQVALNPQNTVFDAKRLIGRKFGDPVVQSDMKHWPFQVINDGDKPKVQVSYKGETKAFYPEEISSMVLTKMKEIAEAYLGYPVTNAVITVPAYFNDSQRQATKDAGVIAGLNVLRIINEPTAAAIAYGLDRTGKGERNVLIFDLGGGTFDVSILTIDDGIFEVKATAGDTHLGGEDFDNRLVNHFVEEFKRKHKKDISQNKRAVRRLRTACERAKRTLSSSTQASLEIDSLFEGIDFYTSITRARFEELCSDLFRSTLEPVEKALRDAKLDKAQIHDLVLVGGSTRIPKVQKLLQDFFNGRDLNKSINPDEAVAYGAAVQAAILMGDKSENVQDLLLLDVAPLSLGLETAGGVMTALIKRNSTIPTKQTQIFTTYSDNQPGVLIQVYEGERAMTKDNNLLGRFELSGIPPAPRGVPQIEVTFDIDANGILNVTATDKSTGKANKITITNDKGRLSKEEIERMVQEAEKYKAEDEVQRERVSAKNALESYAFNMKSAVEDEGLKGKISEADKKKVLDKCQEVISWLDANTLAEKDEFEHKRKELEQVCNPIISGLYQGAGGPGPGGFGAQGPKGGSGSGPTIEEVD
UniProt P11142: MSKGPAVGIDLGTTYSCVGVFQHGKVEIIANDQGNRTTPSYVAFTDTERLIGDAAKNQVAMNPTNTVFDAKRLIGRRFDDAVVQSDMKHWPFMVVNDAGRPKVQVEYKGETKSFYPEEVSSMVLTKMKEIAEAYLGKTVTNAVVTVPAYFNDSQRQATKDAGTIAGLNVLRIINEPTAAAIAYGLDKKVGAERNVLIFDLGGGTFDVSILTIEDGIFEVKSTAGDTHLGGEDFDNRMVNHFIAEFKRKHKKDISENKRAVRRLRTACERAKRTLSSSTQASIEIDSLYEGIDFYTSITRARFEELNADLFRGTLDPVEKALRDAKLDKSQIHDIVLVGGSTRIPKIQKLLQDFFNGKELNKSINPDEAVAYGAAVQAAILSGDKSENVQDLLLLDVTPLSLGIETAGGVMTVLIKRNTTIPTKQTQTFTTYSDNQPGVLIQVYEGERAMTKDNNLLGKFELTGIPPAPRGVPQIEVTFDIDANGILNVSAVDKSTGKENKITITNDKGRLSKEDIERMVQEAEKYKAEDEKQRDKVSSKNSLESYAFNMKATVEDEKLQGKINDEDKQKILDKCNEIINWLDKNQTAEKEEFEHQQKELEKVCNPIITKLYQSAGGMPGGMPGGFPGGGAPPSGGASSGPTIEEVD
UniProt Q9UBN7: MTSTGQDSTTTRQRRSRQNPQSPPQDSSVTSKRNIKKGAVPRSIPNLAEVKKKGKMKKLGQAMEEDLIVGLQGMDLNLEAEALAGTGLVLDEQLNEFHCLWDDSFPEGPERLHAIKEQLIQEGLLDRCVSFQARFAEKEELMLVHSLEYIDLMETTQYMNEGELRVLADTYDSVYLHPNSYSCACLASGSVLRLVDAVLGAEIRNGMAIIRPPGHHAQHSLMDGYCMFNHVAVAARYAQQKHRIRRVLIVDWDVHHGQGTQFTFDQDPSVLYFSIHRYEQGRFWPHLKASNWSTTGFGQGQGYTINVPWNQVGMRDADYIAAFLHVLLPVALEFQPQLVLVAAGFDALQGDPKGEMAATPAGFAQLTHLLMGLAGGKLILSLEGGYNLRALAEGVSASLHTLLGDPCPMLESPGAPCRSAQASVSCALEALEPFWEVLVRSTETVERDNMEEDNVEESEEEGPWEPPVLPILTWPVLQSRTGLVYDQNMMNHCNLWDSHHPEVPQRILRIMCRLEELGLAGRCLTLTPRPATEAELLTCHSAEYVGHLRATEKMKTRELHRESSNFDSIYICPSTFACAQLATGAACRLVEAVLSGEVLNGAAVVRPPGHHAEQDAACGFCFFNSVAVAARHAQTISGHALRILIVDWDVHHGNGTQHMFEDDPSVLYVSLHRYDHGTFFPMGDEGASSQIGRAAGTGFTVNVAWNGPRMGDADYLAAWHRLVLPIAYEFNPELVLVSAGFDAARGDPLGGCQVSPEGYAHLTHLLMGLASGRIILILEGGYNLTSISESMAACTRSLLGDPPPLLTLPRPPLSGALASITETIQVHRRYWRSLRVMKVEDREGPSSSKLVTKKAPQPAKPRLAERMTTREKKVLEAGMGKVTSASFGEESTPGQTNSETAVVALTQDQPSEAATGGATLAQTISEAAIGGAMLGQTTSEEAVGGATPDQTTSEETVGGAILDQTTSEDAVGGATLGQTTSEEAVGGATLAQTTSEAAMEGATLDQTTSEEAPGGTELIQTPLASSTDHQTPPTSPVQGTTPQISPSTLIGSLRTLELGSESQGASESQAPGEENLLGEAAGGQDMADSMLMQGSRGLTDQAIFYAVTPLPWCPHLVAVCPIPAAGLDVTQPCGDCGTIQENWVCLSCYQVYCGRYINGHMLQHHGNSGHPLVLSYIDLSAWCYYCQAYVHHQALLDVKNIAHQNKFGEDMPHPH
FLAG-tagged HDAC6 ΔSE14 (Q9UBN7, form named): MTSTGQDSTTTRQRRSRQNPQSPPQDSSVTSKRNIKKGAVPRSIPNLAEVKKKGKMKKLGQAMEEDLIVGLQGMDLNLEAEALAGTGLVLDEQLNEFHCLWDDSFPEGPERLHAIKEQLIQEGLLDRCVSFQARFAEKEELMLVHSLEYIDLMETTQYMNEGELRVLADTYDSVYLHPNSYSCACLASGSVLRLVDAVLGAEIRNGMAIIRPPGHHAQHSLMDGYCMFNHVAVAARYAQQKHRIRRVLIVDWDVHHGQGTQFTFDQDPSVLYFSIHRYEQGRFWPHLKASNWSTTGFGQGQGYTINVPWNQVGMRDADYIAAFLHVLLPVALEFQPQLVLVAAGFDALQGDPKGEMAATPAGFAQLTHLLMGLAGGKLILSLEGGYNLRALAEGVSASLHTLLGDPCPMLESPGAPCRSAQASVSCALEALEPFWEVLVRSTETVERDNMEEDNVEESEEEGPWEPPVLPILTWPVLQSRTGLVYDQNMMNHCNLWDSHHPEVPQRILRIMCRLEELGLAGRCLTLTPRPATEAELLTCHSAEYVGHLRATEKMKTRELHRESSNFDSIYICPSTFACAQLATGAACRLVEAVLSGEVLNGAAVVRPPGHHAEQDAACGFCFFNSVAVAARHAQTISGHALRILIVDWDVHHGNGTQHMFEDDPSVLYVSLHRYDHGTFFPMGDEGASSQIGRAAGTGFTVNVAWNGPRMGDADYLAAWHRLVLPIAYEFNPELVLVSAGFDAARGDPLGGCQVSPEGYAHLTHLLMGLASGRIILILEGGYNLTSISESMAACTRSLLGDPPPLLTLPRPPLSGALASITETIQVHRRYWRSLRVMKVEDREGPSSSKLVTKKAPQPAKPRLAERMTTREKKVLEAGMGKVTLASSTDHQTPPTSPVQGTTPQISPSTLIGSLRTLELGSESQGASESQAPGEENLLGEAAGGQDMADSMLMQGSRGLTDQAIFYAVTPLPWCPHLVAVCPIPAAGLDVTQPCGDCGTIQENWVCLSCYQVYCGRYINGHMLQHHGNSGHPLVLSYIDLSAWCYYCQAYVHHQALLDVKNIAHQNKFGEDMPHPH

How the values were obtained:
Hsp70-FL = Hsp70-FL (UniProt P0DMV8); experiment: co-IP; HEK-293A cells, HDAC6 (WT or ΔSE14) with Hsp70 or Hsc70 (Supplementary Fig. 1f); NETN lysate; which partner was precipitated is not told
Hsc70-Myc = Hsc70-Myc (UniProt P11142); experiment: as above

| binding (Hsp70-FL) | binding (Hsc70-Myc) | Substance |
| --- | --- | --- |
| binds | binds | FLAG-tagged HDAC6 (WT) (from UniProt Q9UBN7 1-1215) (enzyme) |
| binds | binds | FLAG-tagged HDAC6 ΔSE14 (from UniProt Q9UBN7 1-1215) (enzyme) |
